# Reference: PMC8750551
# Protein sequences, listed by entry. Tags and fused reporters are not part of them.
# UniProt Q9BYV9: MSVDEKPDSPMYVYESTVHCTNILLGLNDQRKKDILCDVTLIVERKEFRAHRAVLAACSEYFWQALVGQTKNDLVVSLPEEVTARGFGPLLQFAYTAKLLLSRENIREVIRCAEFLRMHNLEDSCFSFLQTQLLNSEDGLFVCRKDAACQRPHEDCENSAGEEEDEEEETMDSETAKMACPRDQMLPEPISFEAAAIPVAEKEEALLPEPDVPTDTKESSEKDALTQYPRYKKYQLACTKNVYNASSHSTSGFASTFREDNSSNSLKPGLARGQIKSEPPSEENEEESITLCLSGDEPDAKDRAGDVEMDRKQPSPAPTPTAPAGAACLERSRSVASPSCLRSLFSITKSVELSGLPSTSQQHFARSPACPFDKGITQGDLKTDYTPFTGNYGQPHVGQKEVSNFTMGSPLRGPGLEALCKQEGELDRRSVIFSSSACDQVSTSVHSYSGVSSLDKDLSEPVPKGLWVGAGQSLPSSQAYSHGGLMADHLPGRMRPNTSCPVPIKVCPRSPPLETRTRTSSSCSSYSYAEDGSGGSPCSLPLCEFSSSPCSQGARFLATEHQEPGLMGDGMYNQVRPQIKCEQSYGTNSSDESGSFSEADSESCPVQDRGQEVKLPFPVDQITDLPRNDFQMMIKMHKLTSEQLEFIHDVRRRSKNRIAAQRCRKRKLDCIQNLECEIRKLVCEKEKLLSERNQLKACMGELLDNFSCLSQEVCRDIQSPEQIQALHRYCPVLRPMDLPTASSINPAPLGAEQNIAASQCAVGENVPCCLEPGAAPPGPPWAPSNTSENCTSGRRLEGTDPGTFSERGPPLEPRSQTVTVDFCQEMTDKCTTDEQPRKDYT
# UniProt Q14204: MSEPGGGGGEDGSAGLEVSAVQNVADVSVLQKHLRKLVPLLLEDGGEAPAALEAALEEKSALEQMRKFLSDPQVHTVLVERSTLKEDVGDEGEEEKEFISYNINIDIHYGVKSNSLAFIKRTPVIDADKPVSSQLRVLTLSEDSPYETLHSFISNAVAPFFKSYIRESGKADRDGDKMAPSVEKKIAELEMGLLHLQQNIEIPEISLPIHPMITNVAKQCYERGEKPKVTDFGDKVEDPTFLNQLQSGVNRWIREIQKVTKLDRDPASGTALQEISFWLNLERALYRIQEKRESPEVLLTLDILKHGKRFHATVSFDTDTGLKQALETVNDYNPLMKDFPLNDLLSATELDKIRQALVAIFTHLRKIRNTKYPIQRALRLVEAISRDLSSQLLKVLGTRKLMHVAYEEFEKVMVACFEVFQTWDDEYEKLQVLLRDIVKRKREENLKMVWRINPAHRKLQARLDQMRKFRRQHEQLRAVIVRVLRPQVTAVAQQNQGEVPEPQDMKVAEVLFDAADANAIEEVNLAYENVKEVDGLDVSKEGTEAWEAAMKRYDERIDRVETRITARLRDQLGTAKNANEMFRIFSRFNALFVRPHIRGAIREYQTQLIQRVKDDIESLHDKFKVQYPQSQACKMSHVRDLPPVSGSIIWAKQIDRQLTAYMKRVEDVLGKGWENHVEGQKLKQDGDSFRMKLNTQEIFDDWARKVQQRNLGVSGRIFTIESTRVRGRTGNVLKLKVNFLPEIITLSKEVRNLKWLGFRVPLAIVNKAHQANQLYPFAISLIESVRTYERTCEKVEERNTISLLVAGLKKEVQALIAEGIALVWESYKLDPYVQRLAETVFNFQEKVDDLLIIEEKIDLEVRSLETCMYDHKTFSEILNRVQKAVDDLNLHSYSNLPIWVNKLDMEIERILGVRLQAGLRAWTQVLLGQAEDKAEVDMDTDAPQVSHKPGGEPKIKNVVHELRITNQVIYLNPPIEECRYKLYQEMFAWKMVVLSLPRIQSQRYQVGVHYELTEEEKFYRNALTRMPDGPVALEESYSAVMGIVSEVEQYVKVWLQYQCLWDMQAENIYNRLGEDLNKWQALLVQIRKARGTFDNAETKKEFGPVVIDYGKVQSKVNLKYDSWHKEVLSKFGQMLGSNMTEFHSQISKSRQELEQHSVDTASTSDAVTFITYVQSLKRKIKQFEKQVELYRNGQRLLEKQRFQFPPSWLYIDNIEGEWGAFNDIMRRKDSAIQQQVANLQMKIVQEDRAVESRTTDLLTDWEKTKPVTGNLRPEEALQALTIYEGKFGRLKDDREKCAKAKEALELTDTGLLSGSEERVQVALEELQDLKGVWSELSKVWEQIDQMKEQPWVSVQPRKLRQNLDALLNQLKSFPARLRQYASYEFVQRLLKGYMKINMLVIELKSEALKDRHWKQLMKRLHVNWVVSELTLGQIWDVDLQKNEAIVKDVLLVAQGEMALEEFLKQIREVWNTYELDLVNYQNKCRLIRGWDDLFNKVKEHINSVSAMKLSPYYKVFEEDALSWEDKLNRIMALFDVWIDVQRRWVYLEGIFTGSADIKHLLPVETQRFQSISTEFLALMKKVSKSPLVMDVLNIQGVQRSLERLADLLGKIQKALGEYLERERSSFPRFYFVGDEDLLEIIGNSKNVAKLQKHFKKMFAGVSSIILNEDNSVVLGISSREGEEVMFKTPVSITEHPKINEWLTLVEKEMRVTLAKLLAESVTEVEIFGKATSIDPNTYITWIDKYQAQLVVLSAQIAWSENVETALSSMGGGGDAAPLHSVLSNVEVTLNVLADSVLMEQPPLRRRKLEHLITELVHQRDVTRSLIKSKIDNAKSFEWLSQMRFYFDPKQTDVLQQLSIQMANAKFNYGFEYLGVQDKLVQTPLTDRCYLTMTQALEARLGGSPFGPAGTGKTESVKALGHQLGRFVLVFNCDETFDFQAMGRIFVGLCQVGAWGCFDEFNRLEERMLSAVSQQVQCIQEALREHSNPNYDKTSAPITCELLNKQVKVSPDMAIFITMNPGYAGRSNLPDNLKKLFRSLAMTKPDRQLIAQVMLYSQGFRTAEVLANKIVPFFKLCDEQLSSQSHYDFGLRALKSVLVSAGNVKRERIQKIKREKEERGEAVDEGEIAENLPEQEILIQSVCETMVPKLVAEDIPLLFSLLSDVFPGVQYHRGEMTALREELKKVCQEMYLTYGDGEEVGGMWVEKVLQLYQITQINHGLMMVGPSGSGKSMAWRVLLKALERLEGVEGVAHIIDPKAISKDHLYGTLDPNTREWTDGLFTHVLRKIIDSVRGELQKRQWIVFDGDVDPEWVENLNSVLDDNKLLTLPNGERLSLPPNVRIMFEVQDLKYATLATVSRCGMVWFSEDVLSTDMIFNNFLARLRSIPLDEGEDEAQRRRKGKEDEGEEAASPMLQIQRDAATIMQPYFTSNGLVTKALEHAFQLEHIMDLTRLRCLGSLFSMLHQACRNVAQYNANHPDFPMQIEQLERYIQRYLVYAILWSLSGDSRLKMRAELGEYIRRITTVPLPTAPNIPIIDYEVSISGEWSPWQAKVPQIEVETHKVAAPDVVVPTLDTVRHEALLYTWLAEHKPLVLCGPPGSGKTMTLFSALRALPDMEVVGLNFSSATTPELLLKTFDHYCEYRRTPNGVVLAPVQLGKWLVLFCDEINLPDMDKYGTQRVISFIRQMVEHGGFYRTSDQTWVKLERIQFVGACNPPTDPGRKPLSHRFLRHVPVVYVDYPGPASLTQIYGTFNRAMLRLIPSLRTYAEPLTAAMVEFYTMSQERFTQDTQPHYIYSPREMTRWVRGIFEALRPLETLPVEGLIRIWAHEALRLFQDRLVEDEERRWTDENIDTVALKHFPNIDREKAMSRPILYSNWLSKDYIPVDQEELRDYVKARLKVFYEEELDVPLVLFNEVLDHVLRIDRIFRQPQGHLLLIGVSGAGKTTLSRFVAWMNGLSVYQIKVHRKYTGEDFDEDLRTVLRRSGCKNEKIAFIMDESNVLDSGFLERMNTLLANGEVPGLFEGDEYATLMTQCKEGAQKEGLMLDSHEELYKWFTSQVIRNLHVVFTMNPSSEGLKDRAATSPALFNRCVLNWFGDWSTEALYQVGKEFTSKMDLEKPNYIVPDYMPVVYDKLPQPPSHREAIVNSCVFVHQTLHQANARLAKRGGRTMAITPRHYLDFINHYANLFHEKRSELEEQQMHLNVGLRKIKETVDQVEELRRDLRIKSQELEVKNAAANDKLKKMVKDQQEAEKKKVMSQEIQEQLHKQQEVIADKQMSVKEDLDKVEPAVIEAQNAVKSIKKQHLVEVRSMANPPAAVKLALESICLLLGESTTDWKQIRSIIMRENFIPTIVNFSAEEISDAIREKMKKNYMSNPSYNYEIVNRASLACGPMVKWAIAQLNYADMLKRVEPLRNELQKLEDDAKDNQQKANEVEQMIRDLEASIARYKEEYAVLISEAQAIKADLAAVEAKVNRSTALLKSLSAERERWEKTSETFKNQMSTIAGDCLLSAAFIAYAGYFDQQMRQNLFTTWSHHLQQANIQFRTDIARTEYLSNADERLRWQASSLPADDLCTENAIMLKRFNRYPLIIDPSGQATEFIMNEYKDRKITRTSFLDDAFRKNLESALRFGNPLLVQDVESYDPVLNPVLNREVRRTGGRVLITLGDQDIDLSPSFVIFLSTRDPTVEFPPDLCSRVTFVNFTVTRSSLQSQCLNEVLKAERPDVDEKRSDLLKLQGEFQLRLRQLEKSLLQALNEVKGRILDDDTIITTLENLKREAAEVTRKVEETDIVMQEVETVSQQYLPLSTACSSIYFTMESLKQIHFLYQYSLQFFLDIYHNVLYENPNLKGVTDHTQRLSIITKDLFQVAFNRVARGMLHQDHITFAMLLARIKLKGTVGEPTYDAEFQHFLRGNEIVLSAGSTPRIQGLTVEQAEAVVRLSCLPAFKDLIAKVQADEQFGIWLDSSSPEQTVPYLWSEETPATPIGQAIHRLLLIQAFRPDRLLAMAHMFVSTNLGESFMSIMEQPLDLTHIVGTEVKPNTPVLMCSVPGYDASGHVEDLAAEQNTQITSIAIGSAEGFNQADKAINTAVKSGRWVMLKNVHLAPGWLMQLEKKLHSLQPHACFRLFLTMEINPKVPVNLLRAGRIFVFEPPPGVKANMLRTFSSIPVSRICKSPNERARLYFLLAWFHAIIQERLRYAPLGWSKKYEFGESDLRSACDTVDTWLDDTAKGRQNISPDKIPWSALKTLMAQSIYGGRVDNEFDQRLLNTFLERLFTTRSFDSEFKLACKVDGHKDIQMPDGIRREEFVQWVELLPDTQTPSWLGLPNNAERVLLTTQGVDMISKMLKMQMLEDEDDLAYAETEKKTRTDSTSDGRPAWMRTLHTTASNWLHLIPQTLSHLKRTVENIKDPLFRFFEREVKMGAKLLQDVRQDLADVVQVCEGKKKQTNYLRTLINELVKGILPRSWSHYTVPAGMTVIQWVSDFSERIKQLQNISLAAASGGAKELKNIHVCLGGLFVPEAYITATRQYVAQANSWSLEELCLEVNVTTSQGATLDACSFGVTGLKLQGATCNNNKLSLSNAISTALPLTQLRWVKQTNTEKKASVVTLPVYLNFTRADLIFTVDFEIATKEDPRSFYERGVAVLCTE
# UniProt Q96AE4: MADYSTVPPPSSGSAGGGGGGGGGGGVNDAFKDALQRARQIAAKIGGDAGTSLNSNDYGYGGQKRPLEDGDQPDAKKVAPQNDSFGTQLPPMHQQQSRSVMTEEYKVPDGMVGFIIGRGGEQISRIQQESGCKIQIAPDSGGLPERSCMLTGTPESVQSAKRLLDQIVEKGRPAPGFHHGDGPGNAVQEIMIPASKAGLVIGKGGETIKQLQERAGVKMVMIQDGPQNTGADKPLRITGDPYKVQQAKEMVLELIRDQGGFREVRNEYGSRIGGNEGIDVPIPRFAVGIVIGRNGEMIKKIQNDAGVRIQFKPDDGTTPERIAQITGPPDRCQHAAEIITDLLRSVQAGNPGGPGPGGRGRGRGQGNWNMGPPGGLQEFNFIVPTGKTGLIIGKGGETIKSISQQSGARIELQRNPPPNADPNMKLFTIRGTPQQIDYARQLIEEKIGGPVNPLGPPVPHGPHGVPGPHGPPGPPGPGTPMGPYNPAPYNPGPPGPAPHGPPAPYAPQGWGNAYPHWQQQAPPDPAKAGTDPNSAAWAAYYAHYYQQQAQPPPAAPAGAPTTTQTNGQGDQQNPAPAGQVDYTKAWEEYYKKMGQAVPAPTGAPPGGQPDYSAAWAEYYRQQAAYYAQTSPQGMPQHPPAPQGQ
# UniProt P17174: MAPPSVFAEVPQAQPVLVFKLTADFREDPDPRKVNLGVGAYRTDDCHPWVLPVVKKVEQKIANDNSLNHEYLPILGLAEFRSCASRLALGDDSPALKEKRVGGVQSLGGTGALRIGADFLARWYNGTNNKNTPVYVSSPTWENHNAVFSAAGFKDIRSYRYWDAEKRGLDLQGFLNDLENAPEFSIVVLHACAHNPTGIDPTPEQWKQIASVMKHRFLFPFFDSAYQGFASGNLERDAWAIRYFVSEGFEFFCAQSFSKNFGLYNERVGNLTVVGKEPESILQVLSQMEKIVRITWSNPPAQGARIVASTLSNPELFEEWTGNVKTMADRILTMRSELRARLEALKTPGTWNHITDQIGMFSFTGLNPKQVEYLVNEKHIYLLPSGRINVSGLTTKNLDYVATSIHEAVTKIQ
# Target: BACH2 (BTB and CNC homology 1, basic leucine zipper transcription factor 2) (human (endogenous in MEC-1)) (UniProt Q9BYV9)
# Assay: affinity purification with mass spectrometry; reciprocal co-immunoprecipitation with anti-BACH2 or anti-BCL6 from MEC-1 CLL cells, followed by Orbitrap mass spectrometry
row,binding,Molecule
1,binds,RHOG (from UniProt P84095 1-191)
2,binds,COPB1 (from UniProt P53618 1-953)
3,binds,DSP (from UniProt P15924 1-2871)
4,binds,DYNC1H1 (from UniProt Q14204 1-4646)
5,binds,EXOSC6 (from UniProt Q5RKV6 1-272)
6,binds,PSMD14 (from UniProt O00487 1-310)
7,binds,PSMA1 (from UniProt P25786 1-263)
8,binds,PSMD4 (from UniProt P55036 1-377)
9,binds,FUBP1 (far upstream element binding protein 1) (from UniProt Q96AE4 1-644)
10,binds,GOT1 (from UniProt P17174 1-413) (enzyme)
11,binds,proteasome adapter and scaffold proteins (ECPAS) (from UniProt Q5VYK3 1-1845)
12,binds,"GANAB (enzyme, UniProt Q14697 29-944) ITLAVDRSNFKTCEESSFCKRQRSIRPGLSPYRALLDSLQLGPDSLTVHLIHEVTKVLLVLELQGLQKNMTRFRIDELEPRRPRYRVPDVLVADPPIARLSVSGRDENSVELTMAEGPYKIILTARPFRLDLLEDRSLLLSVNARGLLEFEHQRAPRVSQGSKDPAEGDGAQPEETPRDGDKPEETQGKAEKDEPGAWEETFKTHSDSKPYGPMSVGLDFSLPGMEHVYGIPEHADNLRLKVTEGGEPYRLYNLDVFQYELYNPMALYGSVPVLLAHNPHRDLGIFWLNAAETWVDISSNTAGKTLFGKMMDYLQGSGETPQTDVRWMSETGIIDVFLLLGPSISDVFRQYASLTGTQALPPLFSLGYHQSRWNYRDEADVLEVDQGFDDHNLPCDVIWLDIEHADGKRYFTWDPSRFPQPRTMLERLASKRRKLVAIVDPHIKVDSGYRVHEELRNLGLYVKTRDGSDYEGWCWPGSAGYPDFTNPTMRAWWANMFSYDNYEGSAPNLFVWNDMNEPSVFNGPEVTMLKDAQHYGGWEHRDVHNIYGLYVHMATADGLRQRSGGMERPFVLARAFFAGSQRFGAVWTGDNTAEWDHLKISIPMCLSLGLVGLSFCGADVGGFFKNPEPELLVRWYQMGAYQPFFRAHAHLDTGRREPWLLPSQHNDIIRDALGQRYSLLPFWYTLLYQAHREGIPVMRPLWVQYPQDVTTFNIDDQYLLGDALLVHPVSDSGAHGVQVYLPGQGEVWYDIQSYQKHHGPQTLYLPVTLSSIPVFQRGGTIVPRWMRVRRSSECMKDDPITLFVALSPQGTAQGELFLDDGHTFNYQTRQEFLLRRFSFSGNTLVSSSADPEGHFETPIWIERVVIIGAGKPAAVVLQTKGSPESRLSFQHDPETSVLVLRKPGINVASDWSIHLR"
13,binds,"RPN1 (protein, UniProt P04843 24-607) ASSEAPPLINEDVKRTVDLSSHLAKVTAEVVLAHLGGGSTSRATSFLLALEPELEARLAHLGVQVKGEDEEENNLEVRETKIKGKSGRFFTVKLPVALDPGAKISVIVETVYTHVLHPYPTQITQSEKQFVVFEGNHYFYSPYPTKTQTMRVKLASRNVESYTKLGNPTRSEDLLDYGPFRDVPAYSQDTFKVHYENNSPFLTITSMTRVIEVSHWGNIAVEENVDLKHTGAVLKGPFSRYDYQRQPDSGISSIRSFKTILPAAAQDVYYRDEIGNVSTSHLLILDDSVEMEIRPRFPLFGGWKTHYIVGYNLPSYEYLYNLGDQYALKMRFVDHVFDEQVIDSLTVKIILPEGAKNIEIDSPYEISRAPDELHYTYLDTFGRPVIVAYKKNLVEQHIQDIVVHYTFNKVLMLQEPLLVVAAFYILFFTVIIYVRLDFSITKDPAAEARMKVACITEQVLTLVNKRIGLYRHFDETVNRYKQSRDISTLNSGKKSLETEHKALTSEIALLQSRLKTEGSDLCDRVSEMQKLDAQVKELVLKSAVEAERLVAGKLKKDTYIENEKLISGKRQELVTKIDHILDAL"

row,Molecule,binding
1,RAD23B (from UniProt P54727 1-409),binds

# Results are given in words; binding and its absence hold for the method and conditions named. Binding seen in cells or lysates may run through a third protein. These calls come from enrichment with a bait or labelling near it, and not all partners need be listed.
